Structures are written as SMILES. The list does not hold the whole screen: it gathers tests that were run many times, whatever their T/C, doses with no T/C, and many T/C values between a quarter and a half above the control. Other doses and runs of a compound stand elsewhere. T/C: endpoint of the treated group in % of that of the vehicle group. Some entries give survivors of the animals treated and no T/C: the source files T/C as zero there, which appears to mark a toxic dose or a test without result, not a measured value. Some survivor counts are full or nearly so, which does not show that the dose was tolerated: survival well below the control is almost never listed, so the zero probably covers shortened survival too. Survivors were counted at the toxicity check, usually on the fifth day, unless a day is given; later deaths do not show. Schedules are NCI's codes, read here as Q, the interval in days (D) or hours (H), X, the number of doses. Some entries hold several experiments; the results are listed from low to high. For survival time, the PubChem record calls one and a half times the control and up active, and a quarter to a half above the control has no call in these data; cut-offs in other NCI protocols can differ.

The source of these data is PubChem BioAssay AID330 (DTP/NCI, 2004).

The subject of the assay is P388 leukemia ip, CD2F1 mice, survival T/C. As to the kind of experiment: NCI In Vivo Anticancer Drug Screen. Data for tumor model P388 Leukemia (intraperitoneal) in CD2F1 (CDF1) mice. The following applies: T/C endpoint: median survival time, higher T/C = longer survival.
The mark [1] stands for this setting: dose: 50.0 mg/kg/injection, schedule: Q01DX009 (ip), vehicle: saline with Tween-80.
Where [2] appears, read: dose: 100.0 mg/kg/injection, schedule: Q01DX009 (ip), vehicle: saline with Tween-80.
Where [3] appears, read: dose: 200.0 mg/kg/injection, schedule: Q01DX009 (ip), vehicle: saline with Tween-80.
Where [4] appears, read: dose: 200.0 mg/kg/injection, schedule: Q01DX001 (ip), vehicle: Klucel (hydroxypropylcellulose) (HPC).
[5] abbreviates: dose: 400.0 mg/kg/injection, schedule: Q01DX001 (ip), vehicle: Klucel (hydroxypropylcellulose) (HPC).
Setting [6] is: dose: 400.0 mg/kg/injection, schedule: Q01DX001 (ip), vehicle: saline.
Setting [7] is: dose: 25.0 mg/kg/injection, schedule: Q01DX009 (ip), vehicle: saline.
[8] abbreviates: dose: 50.0 mg/kg/injection, schedule: Q01DX009 (ip), vehicle: saline.
The mark [9] stands for this setting: dose: 100.0 mg/kg/injection, schedule: Q01DX005 (ip), vehicle: Klucel (hydroxypropylcellulose) (HPC).
[10] abbreviates: dose: 200.0 mg/kg/injection, schedule: Q01DX005 (ip), vehicle: Klucel (hydroxypropylcellulose) (HPC).
Setting [11] is: dose: 100.0 mg/kg/injection, schedule: Q01DX005 (ip), vehicle: saline with Tween-80.
Where [12] appears, read: dose: 200.0 mg/kg/injection, schedule: Q01DX005 (ip), vehicle: saline with Tween-80.
Where [13] appears, read: dose: 25.0 mg/kg/injection, schedule: Q01DX009 (ip), vehicle: saline with Tween-80.
[14] abbreviates: dose: 200.0 mg/kg/injection, schedule: Q01DX009 (ip), vehicle: Klucel (hydroxypropylcellulose) (HPC).

As for `CC1OC(CC(=O)O)Cc2c1c(O)c1c(O)cc(-c3cc(=O)c4c(=O)c5c(c(=O)c=4c3=O)CC(CC(=O)O)OC5C)c(O)c1c2O` (stereo not given), the survivor count by setting is: under setting [1], 6 of 6; under setting [2], 1 of 6; under setting [3], 0 of 6.

As to `O=P1(Oc2ccccc2)NC2CCCCC2N1` (stereo not given), the survivor count is, setting by setting: under setting [4], 1 of 6; under setting [5], 0 of 6.

As for `NC(=S)c1ccccc1[N+](=O)[O-]`, the survivor count under setting [6] is given as 0 of 6.

For `S=P(NCCS)(N1CC1)N1CC1`, the T/C under setting [2] was 145 % of control and the T/C (dose: 400.0 mg/kg/injection, schedule: Q04DX003 (ip), vehicle: saline with Tween-80) is 136 % of control. Also, the survivor count runs as follows: under setting [3], 4 of 6; (dose: 264.0 mg/kg/injection, schedule: Q04DX003 (ip), vehicle: saline with Tween-80) 3 of 6; (dose: 400.0 mg/kg/injection, schedule: Q01DX009 (ip), vehicle: saline with Tween-80) 2 of 6; (dose: 600.0 mg/kg/injection, schedule: Q04DX003 (ip), vehicle: saline with Tween-80) 4 of 6.

`O=[N+]([O-])c1cn(CCNc2c3ccccc3nc3ccccc23)cn1`: the survivor count (dose: 120.0 mg/kg/injection, schedule: Q01DX005 (ip), vehicle: saline with Tween-80) was 0 of 6 and the survivor count (dose: 240.0 mg/kg/injection, schedule: Q01DX005 (ip), vehicle: saline with Tween-80) is listed as 0 of 6.

Regarding `O=NNc1ccc([N+](=O)[O-])cn1`, the T/C reads like this: under setting [7], 130 and 135 % of control; under setting [8], 128 % of control. In addition, the survivor count by setting is: (dose: 50.0 mg/kg/injection, schedule: Q01DX009 (ip), vehicle: water) 3 of 6 and 6 of 6; (dose: 100.0 mg/kg/injection, schedule: Q01DX009 (ip), vehicle: water) 0 of 6; (dose: 200.0 mg/kg/injection, schedule: Q01DX009 (ip), vehicle: water) 0 of 6.

As for `COc1ccc2ccc3oc([N+](=O)[O-])cc3c2c1`, the T/C was 132 % of control (dose: 50.0 mg/kg/injection, schedule: Q01DX005 (ip), vehicle: Klucel (hydroxypropylcellulose) (HPC)); 137 % of control under setting [9]; 132 and 136 % of control under setting [10].

For the compound `C1=C(c2ccccc2)CC2CCC1N2Cc1ccccc1` (stereo not given), the survivor count runs as follows: under setting [11], 1 of 6; under setting [12], 0 of 6.

Regarding `CNc1ccc(N=Nc2ccc3ncccc3c2)cc1`, the survivor count by setting is: under setting [13], 6 of 6; under setting [1], 4 of 6; under setting [2], 0 of 6.

Turning to `CCN=C(N)Nc1nc(C)c2cc(Cl)ccc2n1`, the survivor count is, setting by setting: under setting [11], 2 of 6; under setting [12], 0 of 6.

On to `COc1ccc([I+]c2cccc(Cl)c2)cc1Cl`, for which the T/C is 135 % of control (dose: 1.56 mg/kg/injection, schedule: Q01DX009 (ip), vehicle: saline with Tween-80); 135 % of control (dose: 3.12 mg/kg/injection, schedule: Q01DX009 (ip), vehicle: saline with Tween-80); 142 and 143 % of control (dose: 6.25 mg/kg/injection, schedule: Q01DX009 (ip), vehicle: saline with Tween-80). Besides, the survivor count is 1 of 6 under setting [1], 1 of 6 under setting [2] and 0 of 6 under setting [3].

In the case of `O=C1C(=O)c2ccccc2C(O)=C1Sc1ccc2ccccc2c1`, the survivor count is recorded as 6 of 6 under setting [13] and 6 of 6 under setting [1].

With `O=NNc1ccc(Sc2ccc3ccccc3c2)cn1`, the T/C (dose: 12.5 mg/kg/injection, schedule: Q01DX009 (ip), vehicle: saline) is 135 % of control. Besides, the survivor count under setting [7] is 6 of 6 and the survivor count under setting [8] is 2 of 6.

As for `CN1CCCC(CN2c3ccccc3Sc3ccccc32)C1` (stereo not given), the survivor count under setting [12] is given as 3 of 6.

Turning to `O=[N+]([O-])c1cccc(C(Nc2nncs2)Nc2nncs2)c1`, the T/C runs as follows: under setting [9], 126 % of control; under setting [10], 129 % of control.

On to `CC1NC(CCCCCCCCCCC2=CC(CCCCCCCCCCC3CCC(O)C(C)N3)C3CCCN3C2)CCC1O` (stereo not given), for which the survivor count is recorded as 6 of 6 (dose: 7.5 mg/kg/injection, schedule: Q01DX005 (ip), vehicle: water); 0 of 6, 1 of 6, 2 of 6 (dose: 15.0 mg/kg/injection, schedule: Q01DX005 (ip), vehicle: water); 0 of 6 (dose: 30.0 mg/kg/injection, schedule: Q01DX005 (ip), vehicle: water); 0 of 6 (dose: 60.0 mg/kg/injection, schedule: Q01DX005 (ip), vehicle: water); 0 of 6 (dose: 120.0 mg/kg/injection, schedule: Q01DX005 (ip), vehicle: water).

Consider `CCCOC1=NC2=NC(N3CCCC3)=NC3=C(Cl)C=C(Cl)C(=N1)N23`, for which the survivor count is listed as 0 of 6 (dose: 200.0 mg/kg/injection, schedule: Q04DX002 (ip), vehicle: Klucel + Tween-80) and 0 of 6 (dose: 400.0 mg/kg/injection, schedule: Q04DX002 (ip), vehicle: Klucel + Tween-80).

With `CCOC(=O)C1=C(C(=O)c2cccc3ccccc23)C(c2cccc([N+](=O)[O-])c2)C(C(=O)c2cccc3ccccc23)=C(C(=O)OCC)N1`, the survivor count is reported as 6 of 6 (dose: 60.0 mg/kg/injection, schedule: Q01DX005 (ip), vehicle: Klucel (hydroxypropylcellulose) (HPC)); 6 of 6 (dose: 120.0 mg/kg/injection, schedule: Q01DX005 (ip), vehicle: Klucel (hydroxypropylcellulose) (HPC)); 5 of 6 (dose: 240.0 mg/kg/injection, schedule: Q01DX005 (ip), vehicle: Klucel (hydroxypropylcellulose) (HPC)).

Turning to `C/C(=N\Nc1ccccn1)c1ccccn1`, the survivor count (dose: 50.0 mg/kg/injection, schedule: Q01DX005 (ip), vehicle: saline with Tween-80) is given as 1 of 6; the survivor count under setting [11] is 0 of 6; the survivor count under setting [12] is listed as 0 of 6.

`O=C(O)C(CS)NCCNC(CS)C(=O)O` (stereo not given): the survivor count is 1 of 6 (dose: 50.0 mg/kg/injection, schedule: Q01DX001 (ip), vehicle: Klucel (hydroxypropylcellulose) (HPC)); 1 of 6 (dose: 100.0 mg/kg/injection, schedule: Q01DX001 (ip), vehicle: Klucel (hydroxypropylcellulose) (HPC)); 0 of 6 under setting [4]; 0 of 6 under setting [5].

Regarding `CN(C)c1ccc([N+](C)(C)Cc2ccc(C[N+](C)(C)c3ccc([N+](C)(C)Cc4ccc(CCl)cc4)cc3)cc2)cc1`, the survivor count runs as follows: (dose: 12.5 mg/kg/injection, schedule: Q01DX001 (ip), vehicle: saline) 0 of 6 and 3 of 6; (dose: 25.0 mg/kg/injection, schedule: Q01DX001 (ip), vehicle: saline) 0 of 6; (dose: 50.0 mg/kg/injection, schedule: Q01DX001 (ip), vehicle: saline) 1 of 6; (dose: 100.0 mg/kg/injection, schedule: Q01DX001 (ip), vehicle: saline) 0 of 6; (dose: 200.0 mg/kg/injection, schedule: Q01DX001 (ip), vehicle: saline) 0 of 6; under setting [6], 0 of 6.

As for `C#CCOC(=O)Nc1nc2ccc(C)cc2s1`, the survivor count reads like this: (dose: 50.0 mg/kg/injection, schedule: Q01DX009 (ip), vehicle: Klucel (hydroxypropylcellulose) (HPC)) 6 of 6; (dose: 100.0 mg/kg/injection, schedule: Q01DX009 (ip), vehicle: Klucel (hydroxypropylcellulose) (HPC)) 5 of 6; under setting [14], 1 of 6.

Consider `NC(N)=NS(=O)(=O)c1ccc(N=Nc2c(O)n(-c3ccccc3)n(-c3ccccc3)c2=O)cc1`, for which the survivor count under setting [14] is 6 of 6.
